According to PubChem BioAssay AID504467 (National Center for Advancing Translational Sciences (NCATS), 2011):
About 7,700 (2.3%) of roughly 330,000 compounds were called active. Inconclusive results, whose numbers are uncertain, are shown with a selection of clear calls. The call rests on the fitted dose curve; in most records, active means well fitted inhibition curve with a large enough effect; inconclusive means small, poorly fitted or top-dose-only effect, or effect the other way; inactive means flat fitted curve, though single readings scatter. Where the call is inconclusive, the potency comes from a doubtful curve fit.

Test: qHTS screen for small molecules that inhibit ELG1-dependent DNA repair in human embryonic kidney (HEK293T) cells expressing luciferase-tagged ELG1; further: nearly all actives have a fitted effect of over 55% in size
Settings: HEK293T ELG1-luciferase reporter, luminescence, 16 h, DNA damage induced by 5-fluorouridine; activity change, negative = inhibition: at 46.1 µM (top of the series)
How it was run: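 In this reporter screen, reduction of luminescence relative to DMSO vehicle indicated activity. Compounds and 5-fluorouridine were added together to 2,000 cells per well, incubated for 16 hr at 37 °C, then developed with ONE-Glo.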
On the % scale 0 is the no-effect control and ±100 the full control effect; potency means the concentration at half of the fitted maximal effect.

| SMILES | activity change, negative = inhibition | Potency |
| --- | --- | --- |
| Nc1c(-c2n[nH]c(=S)n2-c2ccc(Cl)cc2Cl)cnn1-c1ccccc1 | inactive: 31.7% |  |
| COc1cc(C(=O)Nc2cccc(-n3cnnn3)c2)cc(Cl)c1OC |  | inconclusive: 4.11 µM [inhibitor, single point] |
| CCOc1ccc(OCC(=O)Nc2nccs2)cc1 |  | inconclusive: 0.73 µM [activator, full curve] |
| Cc1cc(SCC(=O)Nc2cccc(S(=O)(=O)N3CCOCC3)c2)nc2ccccc12 |  | inconclusive: 29.1 µM [inhibitor, single point] |
| Cc1cc(C)c[n+](CC(=O)c2ccccc2)c1 | inactive: 0.896% |  |
| Cc1ccsc1C(=O)NC1CCCN(Cc2ccc(Cl)cc2)C1 (centres undefined) |  | inconclusive: 10.3 µM [inhibitor, partial curve] |
| Cc1nc(N)nc(N/N=C/c2ccccc2)n1 |  | inconclusive: 25.9 µM [activator, single point] |
| O=C(Nc1ccc2oc(-c3ccncc3)nc2c1)c1ccco1 |  | inconclusive: 2.91 µM [activator, full curve, poor fit] |
| O=C(Cc1ccc2c(c1)OCCO2)N1CCN(S(=O)(=O)c2cccc(Cl)c2Cl)CC1 |  | inconclusive: 32.6 µM [inhibitor, single point] |
| CC(/C=N/NC(=O)c1cc(-c2cccnc2)nc2c1c(C)nn2-c1ccccc1)=C\c1ccccc1 |  | active: 5.8 µM |
| O=C(NN=C1CCCC1)c1ccc(Br)cc1 |  | inconclusive: 16.4 µM [activator, partial curve, poor fit] |
| CCCCN=C(Nc1ccc(Cl)cc1)c1cccnc1 | inactive: 0.675% |  |
| CCCCc1cc2c(c(NC(C)=O)n1)c(=O)oc1ccccc12 |  | inconclusive: 11.6 µM [activator, partial curve] |
| O=C(/C=C/c1ccco1)Nc1nc(-c2ccc(F)c(F)c2)cs1 |  | inconclusive: 11.6 µM [inhibitor, single point] |
| COc1ccc(OC)c(S(=O)(=O)N2CCC(C(=O)Nc3cccc(C)c3C)CC2)c1 |  | inconclusive: 20.6 µM [inhibitor, single point] |
| COCC(=O)N1CCN(c2cccc(C(F)(F)F)c2)CC1 | inactive: 1.06% |  |
| O=C(NCC1COc2ccccc2O1)c1cc2ccccc2o1 (centres undefined) |  | inconclusive: 29.1 µM [activator, single point] |
| COc1ccc(NS(=O)(=O)c2ccc3oc(=O)c4[nH]c(=O)c(=O)n(C)c4c3c2)cc1 | inactive: 0% |  |
| COc1ccc2cc3cc(C(=O)N4CCN(Cc5ccc6c(c5)OCO6)CC4)oc3nc2c1 |  | active: 23.1 µM |
| Cc1ccc(CCNC(=O)C2CCC(=O)N(CC3CCCCC3)C2)cc1 (centres undefined) | inactive: 3.41% |  |
| C=CCn1c(N/N=C/c2ccc(O)cc2)nc2ccccc2c1=O |  | inconclusive: 18.3 µM [activator, partial curve] |
| COC(=O)c1ccccc1NC(=O)c1c(O)c2cccc3c2n(c1=O)CCC3 |  | inconclusive: 5.17 µM [inhibitor, single point] |
| COc1ccc(-c2csc3ncnc(N4CCN(c5cccc(OC)c5)CC4)c23)cc1 |  | active: 6.51 µM |
| NC(=O)C1CCN(c2nc(-c3ccc4ccccc4c3)cs2)CC1 |  | inconclusive: 18.3 µM [activator, single point] |
| Cc1ccc(C)c(Oc2cc(NN3CCCCC3)c([N+](=O)[O-])cc2[N+](=O)[O-])c1 | inactive: -10.9% |  |

| SMILES | activity change, negative = inhibition | Potency |
| --- | --- | --- |
| CCN(CC)S(=O)(=O)c1ccc(C)c(NC(=O)CN2CCN(Cc3ccccc3)CC2)c1 | inactive: -12.4% |  |
| CN(C(=O)COC(=O)c1ccc(S(=O)(=O)N2CCOCC2)cc1)C1CCCCC1 | inactive: 5.28% |  |
| CC(=O)c1c(C)[nH]c(C(=O)OCC(=O)Nc2ccc(Cl)cc2[N+](=O)[O-])c1C |  | active: 3.66 µM |
| O=C(COC(=O)c1ccc(S(=O)(=O)Nc2ccccc2)cc1)NCc1ccco1 | inactive: 6.26% |  |
| COc1ccc(/C=N/NC(=O)c2ccco2)cc1Cn1nc(C)c([N+](=O)[O-])c1C | inactive: -2.47% |  |
| O=c1cc(-c2ccc(O)c(O)c2)oc2cc(O)c([C@@H]3O[C@H](CO)[C@@H](O)[C@H](O)[C@H]3O)c(O)c12 |  | inconclusive: 18.3 µM [activator, single point] |
| CCc1ccc(NC(=O)C(C)n2nc(C)c([N+](=O)[O-])c2C)cc1 (centres undefined) | inactive: 12.1% |  |
| Cc1cccc(C)c1NC(=O)CN1CCN(CC(=O)c2cc(C)n(C3CC3)c2C)CC1 |  | inconclusive: 10.3 µM [inhibitor, partial curve, poor fit] |
| CCC(=O)n1nc(-c2ccc(OC)cc2)nc1SC |  | inconclusive: 20.6 µM [activator, single point] |
| COc1cc(/C=C/C(=O)N2CCN(C(=O)/C=C/c3cc(OC)c(OC)c(OC)c3)CC2)cc(OC)c1OC | inactive: 2.01% |  |
| CC1=C(/C=C/C(C)=N\NC(=O)c2ccncc2)C(C)(C)CCC1 | inactive: -7.94% |  |
| CCOC(=O)c1cccc(Nc2ncnc3ccc(C)cc23)c1 |  | inconclusive: 7.31 µM [inhibitor, single point] |
| Cc1ccccc1NC(=S)NCCc1ccc(S(N)(=O)=O)cc1 | inactive: -2.38% |  |
| Cc1nc(C)c(-c2ccc(SCc3ccc([N+](=O)[O-])cc3)nn2)s1 |  | inconclusive: 18.3 µM [inhibitor, single point] |
| COc1cccc(C2CC(c3cccs3)=NN2S(C)(=O)=O)c1 (centres undefined) | inactive: -8.3% |  |
| COc1cccc(C2=NOC(C(=O)Nc3cccnc3Cl)C2)c1 (centres undefined) | inactive: -15.8% |  |
| O=C(CCC1CCCC1)Nc1ccc([N+](=O)[O-])cn1 |  | inconclusive: 14.6 µM [activator, partial curve] |
| CC(=O)Nc1ccc(S(=O)(=O)NC(C)c2ccncc2)cc1 (centres undefined) | inactive: 9.61% |  |
| OCCN(CCO)CC(O)COc1ccc(Br)cc1 (centres undefined) |  | inconclusive: 20.6 µM [activator, single point] |
| CC1Cc2ccccc2N1C(=O)CSc1nnc2n1C(C)(C)Cc1ccccc1-2 (centres undefined) |  | inconclusive: 23.1 µM [inhibitor, single point] |
| COC(=O)c1sccc1NC(=O)c1csc(C)c1 |  | inconclusive: 10.3 µM [activator, partial curve, poor fit] |
| COC(=O)c1ccc(N2CCN(c3ccccc3)CC2)nc1 |  | inconclusive: 10.3 µM [activator, partial curve] |
| COc1ccccc1OCCn1c(=O)n(C)c2ccccc21 |  | inconclusive: 23.1 µM [activator, single point] |
| Cc1ccc2c(c1)C(=O)C(=O)N2CCCOc1ccccc1 | inactive: 4.36% |  |
| COc1cc2c(cc1OC)C(NNC(=O)c1ccc(Br)o1)=NC(C)(C)C2 |  | inconclusive: 18.3 µM [inhibitor, partial curve] |

Gathered by group: the entries above with bromine

| SMILES | activity change, negative = inhibition | Potency |
| --- | --- | --- |
| O=C(NN=C1CCCC1)c1ccc(Br)cc1 |  | inconclusive: 16.4 µM [activator, partial curve, poor fit] |
| OCCN(CCO)CC(O)COc1ccc(Br)cc1 (centres undefined) |  | inconclusive: 20.6 µM [activator, single point] |
| COc1cc2c(cc1OC)C(NNC(=O)c1ccc(Br)o1)=NC(C)(C)C2 |  | inconclusive: 18.3 µM [inhibitor, partial curve] |

Molecules shown so far containing fluorine, in the order listed:

| SMILES | activity change, negative = inhibition | Potency |
| --- | --- | --- |
| O=C(/C=C/c1ccco1)Nc1nc(-c2ccc(F)c(F)c2)cs1 |  | inconclusive: 11.6 µM [inhibitor, single point] |
| COCC(=O)N1CCN(c2cccc(C(F)(F)F)c2)CC1 | inactive: 1.06% |  |

Following part

| SMILES | activity change, negative = inhibition | Potency |
| --- | --- | --- |
| COc1ccc(CNc2nc3ccccc3n2CCN2CCCCC2)cc1 |  | inconclusive: 16.4 µM [inhibitor, single point] |
| O=C(COc1ncnc2cc([N+](=O)[O-])ccc12)N(CCc1ccccc1)Cc1ccccc1 |  | inconclusive: 29.1 µM [inhibitor, single point] |
| Cc1ccc(C(=O)Oc2oc(-c3ccco3)nc2C=Nc2ccccc2)cc1 |  | inconclusive: 31.6 µM [activator, single point] |
| CCn1c(C(=O)N2CCC(C(=O)NCCCSC3CCCCC3)CC2)cc2sccc21 |  | active: 20.6 µM |
| C(=N\N(Cc1ccccc1)c1ccccc1)/c1cccnc1 | inactive: -6.32% |  |
| CCN1CCN(c2ccc(S(=O)(=O)N3CCCCC3)cc2NC(=O)COc2ccc(Cl)c(C)c2)CC1 |  | active: 23.1 µM |
| CCCCN(C)S(=O)(=O)c1cc2c3c(c1)CCC(=O)N3CCC2 | inactive: 11% |  |
| Cc1cccc(N2CCN(C(=O)c3ccc4[nH]c(C)c(C)c4c3)CC2)c1C |  | inconclusive: 2.31 µM [inhibitor, partial curve, poor fit] |
| Cn1c(=O)n(-c2cccc(Cl)c2)c(=O)c2c3c(sc21)COC(C)(C)C3 |  | inconclusive: 18.4 µM [inhibitor, partial curve, poor fit] |
| Cn1c(Cc2ccccc2)nnc1SCC(=O)NC1CC1 |  | inconclusive: 29.1 µM [activator, single point] |
| Cc1ccc(CNC(=O)CSc2nc3c(sc4ccccc43)c(=O)n2CCCN2CCCC2)cc1 | inactive: 25.5% |  |
| Cc1nc([N+](=O)[O-])cn1CC(O)c1ccc(F)cc1 (centres undefined) | inactive: -0.742% |  |
| C=CCN1C=CC(=C/C=C(/C#N)C(=O)OCC)C=C1 |  | inconclusive: 1.84 µM [activator, full curve] |
| Cc1ccc(S(=O)(=O)N2CCCCC2C(=O)Nc2nncs2)cc1 (centres undefined) | inactive: -4.76% |  |
| CC(Oc1ccc(Cl)cc1Cl)C(=O)Nc1cccnc1 (centres undefined) |  | inconclusive: 29.1 µM [inhibitor, partial curve, poor fit] |
| Cc1onc(-c2c(F)cccc2Cl)c1C(=O)c1ccccc1 | inactive: -7.55% |  |
| CCC(=O)N1CCc2cc(S(=O)(=O)NCCC(=O)N3CCN(c4ccccc4)CC3)ccc21 | inactive: 1.2% |  |
| Cc1ccc(NC(=O)c2cccc(S(=O)(=O)N(C)c3ccccc3)c2)cc1S(=O)(=O)N1CCOCC1 |  | active: 13 µM |
| COC(=O)c1cnc(N2CCOCC2)nc1C(F)(F)F |  | inconclusive: 18.3 µM [inhibitor, single point] |
| COc1ccc(CCNC(=S)Nc2ccccc2)cc1 |  | inconclusive: 7.3 µM [inhibitor, partial curve] |
| CC(=O)Nc1sc2c(c1C#N)CCC(C)C2 (centres undefined) |  | inconclusive: 20.6 µM [activator, single point] |
| CCOc1ccc(CNC(=S)N/N=C/c2ccncc2)cc1 | inactive: 24.8% |  |
| COc1ccc(-c2c3c(=O)n(C)c(=O)n(C)c3cn2-c2ccc(O)cc2)cc1 |  | inconclusive: 0.58 µM [inhibitor, single point] |
| N#Cc1nc(-c2ccc(OCc3ccc(Cl)cc3)cc2)oc1NCc1cccnc1 | inactive: 17.8% |  |
